# At least one peptide structure holds a part that was inferred or is arguable (an end, a ring closure or a residue). Peptide text beside a SMILES is read from it.
# What was measured:
# male apoE KO mice = assay: Angiotensin II-induced aortic aneurysm formation, rupture and survival after immunization; conditions: for mortality from aneurysm rupture: compared to cBSA and PBS controls, AngII infusion
# bone marrow derived DCs = assay: Cytolytic activity of CD8(+) T cells from immunized mice against dendritic cells in vitro; conditions: CD8:DC 3:1, 4 hours, medium with 10% FBS; CD11c-gated; N = 11 each
smiles,measurement,setting,value
"CC(C)C[C@H](NC(=O)[C@H](CC(=O)O)NC(=O)[C@H](Cc1ccccc1)NC(=O)[C@H](CO)NC(=O)[C@H](CCC(N)=O)NC(=O)[C@H](CCCCN)NC(=O)[C@@H](NC(=O)[C@@H](NC(=O)[C@@H](N)CCCCN)[C@@H](C)O)[C@@H](C)O)C(=O)N[C@@H](CO)C(=O)N[C@H](C(=O)N[C@@H](CCCCN)C(=O)N[C@@H](C)C(=O)N[C@@H](CCC(N)=O)C(=O)N[C@@H](Cc1ccc(O)cc1)C(=O)N[C@@H](CCCCN)C(=O)N[C@@H](CCCCN)C(=O)N[C@@H](CC(N)=O)C(=O)N[C@@H](CCCCN)C(=O)N[C@@H](Cc1c[nH]cn1)C(=O)O)C(C)C [p210, KTTKQ SFDLS VKAQY KKNKH] (H-KTTKQSFDLSVKAQYKKNKH-OH)",Survival at 28 days,"male apoE KO mice; 28 days after starting angiotensin II infusion, P210 42 mice, cBSA 46 mice",90.5%
same,mortality from aneurysm rupture,male apoE KO mice,significantly reduced mortality
same,mortality from aneurysm rupture,male apoE KO mice; listed as P210,reduced mortality
same,alive,"male apoE KO mice; number of mice alive of total (p210 14, cBSA 17), AngII 1000 ng/Kg/min pump 4 weeks, s.c. immunization 100 μg at 7, 10, 12 weeks",13
same,"cytolytic activity of CD8(+) T cells against DCs, normal medium",bone marrow derived DCs,significantly increased the percentage of DC death

# Reference: patent publication US9205139B2, “Immunomodulatory methods and systems for treatment and/or prevention of aneurysms” (priority 2010, dated 2015)
